Results are given in words; binding and its absence hold for the method and conditions named. In cells and extracts the contact can be indirect. Here binding means that the protein was enriched with, or labelled near, the bait; the list need not be complete.
Tests used:
Assay in all cases: affinity purification with mass spectrometry; tandem affinity purification of SFB-tagged bait from soluble and chromatin fractions of transfected HEK293T (NETN buffer; streptavidin sepharose, biotin elution, S-protein agarose), in-gel digestion and tandem mass spectrometry
SFB-TLK1 133–208 (human) = SFB-TLK1 133–208 (human) (UniProt Q9UKI8)
SFB-TLK1 D607A (human) = SFB-TLK1 D607A (human) (UniProt Q9UKI8)
SFB-TLK1 1–240 (human) = SFB-TLK1 1–240 (human) (UniProt Q9UKI8)

Chains of the proteins cited; added tags and fusions are not shown. Lines headed by an entry give the natural chain unless they say otherwise; changes in a name come on top. Residues count along the entry.
UniProt Q9UKI8: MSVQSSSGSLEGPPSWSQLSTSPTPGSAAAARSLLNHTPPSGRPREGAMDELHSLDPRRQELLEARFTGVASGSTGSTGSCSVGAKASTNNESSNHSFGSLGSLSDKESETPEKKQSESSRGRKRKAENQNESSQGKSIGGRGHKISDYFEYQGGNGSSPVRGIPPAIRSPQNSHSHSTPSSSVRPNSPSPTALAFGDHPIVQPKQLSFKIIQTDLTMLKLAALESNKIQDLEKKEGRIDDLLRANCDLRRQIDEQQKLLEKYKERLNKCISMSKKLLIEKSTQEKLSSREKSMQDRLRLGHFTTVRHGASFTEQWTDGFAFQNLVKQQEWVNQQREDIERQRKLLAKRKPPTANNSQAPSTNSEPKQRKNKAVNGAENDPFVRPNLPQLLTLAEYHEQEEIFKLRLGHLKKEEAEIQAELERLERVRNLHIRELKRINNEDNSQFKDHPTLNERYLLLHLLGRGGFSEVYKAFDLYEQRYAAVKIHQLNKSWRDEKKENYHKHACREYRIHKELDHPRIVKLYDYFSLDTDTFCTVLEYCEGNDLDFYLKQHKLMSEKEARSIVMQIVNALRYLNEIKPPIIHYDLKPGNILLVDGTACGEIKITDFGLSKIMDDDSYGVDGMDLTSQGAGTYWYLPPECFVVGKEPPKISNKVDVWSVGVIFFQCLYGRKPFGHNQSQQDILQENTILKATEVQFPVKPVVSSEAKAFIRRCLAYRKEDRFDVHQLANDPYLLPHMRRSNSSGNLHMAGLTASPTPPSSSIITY
SFB-TLK1 1–240: residues 1-240 of Q9UKI8
SFB-TLK1 133–208: residues 133-208 of Q9UKI8
UniProt P12004: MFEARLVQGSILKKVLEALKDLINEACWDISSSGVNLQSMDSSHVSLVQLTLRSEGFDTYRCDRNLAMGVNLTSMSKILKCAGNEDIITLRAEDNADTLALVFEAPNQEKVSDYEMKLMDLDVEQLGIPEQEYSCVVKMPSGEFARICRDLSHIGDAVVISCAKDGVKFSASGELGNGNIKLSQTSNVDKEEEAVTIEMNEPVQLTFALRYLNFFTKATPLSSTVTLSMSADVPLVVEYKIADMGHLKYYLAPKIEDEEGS

Measured: binding

PCNA (from UniProt P12004 1-261)
binds: all assays above

— article PMC11879137
